{"sequences": {"note": "The chains behind the UniProt entries cited, without tags or fusion partners.", "UniProt Q9D7M1": "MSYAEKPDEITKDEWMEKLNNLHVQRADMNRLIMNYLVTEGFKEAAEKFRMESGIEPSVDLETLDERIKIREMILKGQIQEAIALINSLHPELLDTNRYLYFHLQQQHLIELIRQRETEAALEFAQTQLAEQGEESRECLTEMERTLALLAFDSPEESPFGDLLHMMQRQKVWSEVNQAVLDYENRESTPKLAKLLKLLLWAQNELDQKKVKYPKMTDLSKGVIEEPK", "UniProt Q99PV3": "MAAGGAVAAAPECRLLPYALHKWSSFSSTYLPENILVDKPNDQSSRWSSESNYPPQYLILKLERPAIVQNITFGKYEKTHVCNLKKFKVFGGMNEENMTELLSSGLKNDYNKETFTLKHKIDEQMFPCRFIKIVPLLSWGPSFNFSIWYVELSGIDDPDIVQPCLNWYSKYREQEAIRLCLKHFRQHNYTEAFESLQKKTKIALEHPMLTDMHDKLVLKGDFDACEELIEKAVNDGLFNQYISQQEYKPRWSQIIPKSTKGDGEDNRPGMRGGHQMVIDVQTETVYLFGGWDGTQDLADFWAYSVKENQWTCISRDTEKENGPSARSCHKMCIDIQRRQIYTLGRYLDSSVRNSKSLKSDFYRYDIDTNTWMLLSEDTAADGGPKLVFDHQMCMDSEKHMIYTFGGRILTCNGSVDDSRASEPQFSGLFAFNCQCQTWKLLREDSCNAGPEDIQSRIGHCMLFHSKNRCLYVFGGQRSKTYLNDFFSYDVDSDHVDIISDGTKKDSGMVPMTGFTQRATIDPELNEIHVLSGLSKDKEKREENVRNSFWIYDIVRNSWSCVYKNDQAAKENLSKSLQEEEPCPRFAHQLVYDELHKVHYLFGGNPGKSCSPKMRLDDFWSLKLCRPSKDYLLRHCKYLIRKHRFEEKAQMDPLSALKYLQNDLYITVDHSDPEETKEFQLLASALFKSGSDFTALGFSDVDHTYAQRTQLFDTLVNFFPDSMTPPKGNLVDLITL"}, "source": "paper PMC9932110", "key": {"Rmnd5a (mouse)": {"target": "T1, Rmnd5a (mouse) (UniProt Q80YQ8)", "T1 sequence": "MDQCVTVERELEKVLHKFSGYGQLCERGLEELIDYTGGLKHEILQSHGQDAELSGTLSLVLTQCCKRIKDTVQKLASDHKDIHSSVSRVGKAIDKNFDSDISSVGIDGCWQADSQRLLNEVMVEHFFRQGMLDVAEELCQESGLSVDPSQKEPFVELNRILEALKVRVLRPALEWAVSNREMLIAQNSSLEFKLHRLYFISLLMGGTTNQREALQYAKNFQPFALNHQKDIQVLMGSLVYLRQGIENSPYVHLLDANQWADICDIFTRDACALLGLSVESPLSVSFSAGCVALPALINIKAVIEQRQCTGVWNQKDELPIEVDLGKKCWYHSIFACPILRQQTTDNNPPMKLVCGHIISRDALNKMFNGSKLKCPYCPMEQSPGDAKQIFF", "experiment": "SEC; Tcat complex co-expressed in Hi5 insect cells and co-purified by nickel affinity and SEC; both purified"}, "Maea (mouse)": {"target": "T2, Maea (mouse) (UniProt Q4VC33)", "T2 sequence": "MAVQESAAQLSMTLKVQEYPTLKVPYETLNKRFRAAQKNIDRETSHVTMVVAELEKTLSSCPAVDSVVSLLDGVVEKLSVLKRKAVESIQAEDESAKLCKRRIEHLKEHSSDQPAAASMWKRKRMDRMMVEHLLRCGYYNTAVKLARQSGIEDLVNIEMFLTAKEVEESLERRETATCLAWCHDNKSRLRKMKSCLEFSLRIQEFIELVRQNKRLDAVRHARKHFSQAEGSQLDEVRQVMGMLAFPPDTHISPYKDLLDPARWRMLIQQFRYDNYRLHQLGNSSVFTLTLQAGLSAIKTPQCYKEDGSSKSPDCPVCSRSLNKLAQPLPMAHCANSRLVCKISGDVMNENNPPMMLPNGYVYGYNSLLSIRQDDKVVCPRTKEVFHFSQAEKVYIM", "experiment": "SEC; Tcat complex co-expressed in Hi5 insect cells and co-purified by nickel affinity and SEC; both purified"}, "Twa1 (mouse)": {"target": "Twa1 (mouse) (UniProt Q9D7M1)", "experiment": "SEC; analytical SEC of mixed purified subunits and subcomplexes, shift in elution volume; details in the supporting information; both purified"}}, "note": "Results are given in words; binding and its absence hold for the method and conditions named. Some entries that bind do so weakly or less than the wild type."}
{"substance": "Twa1 (of the Tcat complex) (from UniProt Q9D7M1 1-228)", "values": [{"measurement": "binding", "setting": "Rmnd5a (mouse)", "value": "binds"}, {"measurement": "binding", "setting": "Maea (mouse)", "value": "binds"}]}
{"substance": "muskelin (from UniProt Q99PV3 1-735)", "values": [{"measurement": "binding", "setting": "Twa1 (mouse)", "value": "no binding"}]}
